Results taken from US20250376441A1, “NOVEL COMPOUND AND PHARMACEUTICAL COMPOSITION COMPRISING SAME AS ACTIVE INGREDIENT” (Industry-Academic Cooperation Foundation, Yonsei University, priority 2017, published 2025).

Experiments:
[1] = system: acetylcholine in brain tissues; experiment: Acetylcholine content in brain tissue; type: in vivo, ICR mice; details: donepezil group
Description: (§1) Subsequently, the syringe was allowed to stand for 5 minutes and then removed.
Measurement of acetylcholine in brain tissues was performed based on response of o-acyl derivatives with alkaline hydroxylamine. Specifically, 50 μl of brain tissue was taken and 50 μl of 1% hydroxylamine (Sigma, USA) was added and mixed. […] Finally, 500 μl of FeCl3 (10% in 0.1 N HCl) was added to measure an acetylcholine level (umole/mg protein), and then the absorbance was measured at 530 nm.

[2] = system: Tunel positive cells in brain tissue; experiment: Apoptosis level in brain tissue by TUNEL assay; type: in vivo, ICR mice; details: donepezil group, no significant change
Description: as §1
Then, an apoptosis level was checked through TUNEL assay. The TUNEL assay is a method to search for cells that have undergone apoptosis by attaching a fluorescent substance to ends of DNA fragments cleaved due to apoptosis. The extracted brain tissue of the experimental animal is fixed by perfusion with 4% formaldehyde. Then, the brain tissue was embedded in paraffin and sectioned to a thickness of 5 μm. The brain tissue fixed on a slide was subjected to a TUNEL assay kit so that the end portions where DNA having undergone apoptosis had been fragmented are fluorescence-stained, and checked by a fluorescence microscope.

Q: For `COc1cc2c(cc1OC)C(=O)C(CC1CCN(Cc3ccccc3)CC1)C2` (centres unmarked) [donepezil, reference compound], which acetylcholine content [1] is on record?
A: The acetylcholine content was 23.19 μmole/mg protein.

Q: What about the “number of Tunel positive cells” value [2] of the same compound?
A: The value was 113.83±14.77.
